Test results reported in article PMC3082007, “The microRNA cluster miR-106b~25 regulates adult neural stem/progenitor cell proliferation and neuronal differentiation”.
For at least one entry, the source does not settle the construct or the ends of the probe. At least one verdict rests on a figure or table, not on a statement of the authors.

Amino acid sequences for entries named in this document (tags omitted). A change or cut given only in a name is not applied to a line headed by its entry.
UniProt O43524: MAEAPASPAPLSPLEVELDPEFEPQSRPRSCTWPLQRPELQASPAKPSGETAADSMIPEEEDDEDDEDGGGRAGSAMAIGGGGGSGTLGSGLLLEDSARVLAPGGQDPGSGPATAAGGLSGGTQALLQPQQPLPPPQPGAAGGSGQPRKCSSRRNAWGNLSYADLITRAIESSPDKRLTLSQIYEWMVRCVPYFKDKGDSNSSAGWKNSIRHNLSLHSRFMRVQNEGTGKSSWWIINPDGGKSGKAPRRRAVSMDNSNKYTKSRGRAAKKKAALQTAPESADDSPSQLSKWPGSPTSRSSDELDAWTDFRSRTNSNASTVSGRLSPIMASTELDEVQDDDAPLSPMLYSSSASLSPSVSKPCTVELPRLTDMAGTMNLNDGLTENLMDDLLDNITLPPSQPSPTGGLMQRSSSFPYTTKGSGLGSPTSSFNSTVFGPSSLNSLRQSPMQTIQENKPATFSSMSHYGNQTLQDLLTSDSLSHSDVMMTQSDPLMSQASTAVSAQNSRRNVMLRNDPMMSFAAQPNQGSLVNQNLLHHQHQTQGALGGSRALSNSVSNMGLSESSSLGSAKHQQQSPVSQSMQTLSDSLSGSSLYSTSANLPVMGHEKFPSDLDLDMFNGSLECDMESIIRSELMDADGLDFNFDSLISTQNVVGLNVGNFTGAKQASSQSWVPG

Target: FoxO3-GST (human) (UniProt O43524)
Assay: EMSA
Conditions: 3 nM probe, positive control; 200 mM KCl, 200 mM MgCl2, 2% NP-40, 10% glycerol, 5 mM DTT; recombinant protein; protein details: GST; label: 32P

Sequence: AAATAACACACACGTGTGCTGGTAAACAAGCGCGCCAGCC (double strand) [positive control FoxO site near the FoxO3 promoter]
- binding result: binds
